Patent US5428020A (Matsueda; Rei, priority 1994, dated 1995)

Test: general procedure: Boc solid-phase peptide synthesis; benzhydrylamine resin; dicyclohexylcarbodiimide / 1-hydroxybenzotriazole
Settings: whole synthesis, TFA salt

## TFA.H-Phe-Gln-Val-Val-Cys(NpyS)-Gly-NH2 (FQVVC; Cys(NpyS); C-terminal Gly-NH2; TFA salt; printed: Phe-Gln-Val-Val-Cys)
  isolated mass: 415 mg
From the initial resin, scale of the general procedure 0.2g, 1.04 mmol
  isolated yield: 42%
